Test results from the supplement of paper PMC10849652.
The other results are listed elsewhere or left out.

Chains of the proteins cited; added tags and fusions are not shown. Lines headed by an entry give the natural chain unless they say otherwise; changes in a name come on top.
UniProt Q8IWZ3: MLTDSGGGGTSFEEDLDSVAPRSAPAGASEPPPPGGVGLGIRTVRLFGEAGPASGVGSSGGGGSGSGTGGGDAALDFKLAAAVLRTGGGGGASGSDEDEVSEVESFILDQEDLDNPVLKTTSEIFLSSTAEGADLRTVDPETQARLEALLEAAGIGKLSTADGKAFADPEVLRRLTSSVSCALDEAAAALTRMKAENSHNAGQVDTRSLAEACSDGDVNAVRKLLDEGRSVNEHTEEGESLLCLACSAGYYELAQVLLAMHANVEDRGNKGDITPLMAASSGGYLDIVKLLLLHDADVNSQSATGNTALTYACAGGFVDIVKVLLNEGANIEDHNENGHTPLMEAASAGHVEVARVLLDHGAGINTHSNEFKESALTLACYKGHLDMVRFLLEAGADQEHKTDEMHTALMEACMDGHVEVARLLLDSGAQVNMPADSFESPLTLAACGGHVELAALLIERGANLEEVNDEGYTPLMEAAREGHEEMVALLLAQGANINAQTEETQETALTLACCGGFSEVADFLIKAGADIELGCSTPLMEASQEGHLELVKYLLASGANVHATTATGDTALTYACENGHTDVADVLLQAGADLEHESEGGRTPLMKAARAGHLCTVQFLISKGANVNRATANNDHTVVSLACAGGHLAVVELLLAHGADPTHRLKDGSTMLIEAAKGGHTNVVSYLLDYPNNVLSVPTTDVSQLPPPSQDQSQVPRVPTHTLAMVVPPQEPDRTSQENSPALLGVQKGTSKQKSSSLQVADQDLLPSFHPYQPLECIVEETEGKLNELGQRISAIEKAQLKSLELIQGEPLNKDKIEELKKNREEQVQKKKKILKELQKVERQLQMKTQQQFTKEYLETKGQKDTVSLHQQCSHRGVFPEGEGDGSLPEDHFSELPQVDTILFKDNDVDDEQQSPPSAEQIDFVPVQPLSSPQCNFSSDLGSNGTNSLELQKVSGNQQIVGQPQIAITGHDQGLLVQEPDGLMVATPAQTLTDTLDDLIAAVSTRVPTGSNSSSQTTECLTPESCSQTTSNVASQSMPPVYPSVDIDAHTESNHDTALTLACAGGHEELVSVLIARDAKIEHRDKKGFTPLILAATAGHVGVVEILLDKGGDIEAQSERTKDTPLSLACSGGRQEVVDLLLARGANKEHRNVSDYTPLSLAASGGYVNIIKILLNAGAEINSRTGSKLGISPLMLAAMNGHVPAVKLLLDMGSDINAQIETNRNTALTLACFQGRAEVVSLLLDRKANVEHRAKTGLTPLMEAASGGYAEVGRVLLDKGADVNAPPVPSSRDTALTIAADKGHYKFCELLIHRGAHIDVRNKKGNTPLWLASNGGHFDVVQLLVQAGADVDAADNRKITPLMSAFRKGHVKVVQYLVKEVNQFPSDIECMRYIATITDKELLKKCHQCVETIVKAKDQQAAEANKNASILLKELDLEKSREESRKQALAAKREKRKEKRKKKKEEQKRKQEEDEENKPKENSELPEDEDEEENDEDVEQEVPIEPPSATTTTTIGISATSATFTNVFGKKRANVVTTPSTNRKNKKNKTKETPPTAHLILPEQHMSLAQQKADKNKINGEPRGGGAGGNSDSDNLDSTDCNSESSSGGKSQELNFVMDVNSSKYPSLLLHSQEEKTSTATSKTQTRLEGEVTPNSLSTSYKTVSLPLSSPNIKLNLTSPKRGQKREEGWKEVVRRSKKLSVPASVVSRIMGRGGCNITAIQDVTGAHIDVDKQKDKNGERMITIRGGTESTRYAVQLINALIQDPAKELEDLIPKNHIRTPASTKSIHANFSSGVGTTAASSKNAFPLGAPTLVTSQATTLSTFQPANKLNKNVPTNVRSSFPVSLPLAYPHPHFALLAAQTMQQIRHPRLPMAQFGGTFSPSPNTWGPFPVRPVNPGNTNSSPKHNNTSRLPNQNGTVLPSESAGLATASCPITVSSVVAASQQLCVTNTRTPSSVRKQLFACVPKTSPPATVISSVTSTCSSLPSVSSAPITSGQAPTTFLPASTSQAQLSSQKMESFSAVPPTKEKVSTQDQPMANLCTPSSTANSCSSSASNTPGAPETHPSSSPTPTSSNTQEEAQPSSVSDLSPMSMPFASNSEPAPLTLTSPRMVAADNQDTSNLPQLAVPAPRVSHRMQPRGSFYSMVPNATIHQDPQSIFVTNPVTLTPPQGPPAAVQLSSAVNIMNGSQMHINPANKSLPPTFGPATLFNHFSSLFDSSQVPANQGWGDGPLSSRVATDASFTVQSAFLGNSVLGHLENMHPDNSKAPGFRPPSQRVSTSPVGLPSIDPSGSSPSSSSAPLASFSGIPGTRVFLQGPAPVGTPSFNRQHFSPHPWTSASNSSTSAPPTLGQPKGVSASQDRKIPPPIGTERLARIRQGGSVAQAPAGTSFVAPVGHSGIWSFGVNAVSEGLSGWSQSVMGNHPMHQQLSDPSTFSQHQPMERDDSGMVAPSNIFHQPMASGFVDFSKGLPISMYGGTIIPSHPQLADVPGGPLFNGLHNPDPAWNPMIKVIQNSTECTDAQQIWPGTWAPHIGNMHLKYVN
UniProt O94973, whole entry, looked up: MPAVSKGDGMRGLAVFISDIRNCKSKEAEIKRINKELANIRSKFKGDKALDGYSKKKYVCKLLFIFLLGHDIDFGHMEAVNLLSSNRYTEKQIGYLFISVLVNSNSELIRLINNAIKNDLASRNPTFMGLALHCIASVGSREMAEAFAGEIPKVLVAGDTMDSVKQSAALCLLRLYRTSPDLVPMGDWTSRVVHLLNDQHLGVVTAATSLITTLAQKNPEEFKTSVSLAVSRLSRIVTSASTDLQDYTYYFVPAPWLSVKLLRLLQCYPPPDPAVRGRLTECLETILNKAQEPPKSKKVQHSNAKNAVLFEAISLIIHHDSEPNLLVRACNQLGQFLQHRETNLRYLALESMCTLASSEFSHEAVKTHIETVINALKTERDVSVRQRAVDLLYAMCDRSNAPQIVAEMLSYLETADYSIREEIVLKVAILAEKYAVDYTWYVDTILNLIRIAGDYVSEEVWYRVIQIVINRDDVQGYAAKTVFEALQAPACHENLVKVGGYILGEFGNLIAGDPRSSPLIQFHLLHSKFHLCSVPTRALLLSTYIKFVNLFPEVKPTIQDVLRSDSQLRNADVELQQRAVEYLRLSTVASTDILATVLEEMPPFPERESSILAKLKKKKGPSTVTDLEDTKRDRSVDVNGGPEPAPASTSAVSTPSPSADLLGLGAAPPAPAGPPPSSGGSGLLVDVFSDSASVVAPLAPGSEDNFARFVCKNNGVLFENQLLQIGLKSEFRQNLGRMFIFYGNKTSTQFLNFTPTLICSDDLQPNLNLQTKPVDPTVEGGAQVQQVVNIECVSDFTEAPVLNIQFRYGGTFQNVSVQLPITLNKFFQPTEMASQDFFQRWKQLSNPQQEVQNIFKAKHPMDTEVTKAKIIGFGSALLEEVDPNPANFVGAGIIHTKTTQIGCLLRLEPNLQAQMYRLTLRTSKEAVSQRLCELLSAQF
UniProt Q63HQ0: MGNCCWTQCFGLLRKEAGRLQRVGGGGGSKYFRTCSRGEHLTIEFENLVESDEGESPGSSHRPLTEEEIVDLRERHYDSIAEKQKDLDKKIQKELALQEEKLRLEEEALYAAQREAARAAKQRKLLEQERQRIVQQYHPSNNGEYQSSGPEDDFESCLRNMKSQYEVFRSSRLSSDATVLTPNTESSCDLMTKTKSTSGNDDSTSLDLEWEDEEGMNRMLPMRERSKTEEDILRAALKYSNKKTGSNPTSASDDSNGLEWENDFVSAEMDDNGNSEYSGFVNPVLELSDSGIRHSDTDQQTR
UniProt Q3KRA9: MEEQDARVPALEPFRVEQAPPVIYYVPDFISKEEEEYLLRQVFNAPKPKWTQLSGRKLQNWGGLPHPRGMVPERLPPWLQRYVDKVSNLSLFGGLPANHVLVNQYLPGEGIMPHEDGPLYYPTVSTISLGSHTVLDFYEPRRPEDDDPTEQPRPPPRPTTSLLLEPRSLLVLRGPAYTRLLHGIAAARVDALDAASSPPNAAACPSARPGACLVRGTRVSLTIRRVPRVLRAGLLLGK
UniProt Q9HCJ1: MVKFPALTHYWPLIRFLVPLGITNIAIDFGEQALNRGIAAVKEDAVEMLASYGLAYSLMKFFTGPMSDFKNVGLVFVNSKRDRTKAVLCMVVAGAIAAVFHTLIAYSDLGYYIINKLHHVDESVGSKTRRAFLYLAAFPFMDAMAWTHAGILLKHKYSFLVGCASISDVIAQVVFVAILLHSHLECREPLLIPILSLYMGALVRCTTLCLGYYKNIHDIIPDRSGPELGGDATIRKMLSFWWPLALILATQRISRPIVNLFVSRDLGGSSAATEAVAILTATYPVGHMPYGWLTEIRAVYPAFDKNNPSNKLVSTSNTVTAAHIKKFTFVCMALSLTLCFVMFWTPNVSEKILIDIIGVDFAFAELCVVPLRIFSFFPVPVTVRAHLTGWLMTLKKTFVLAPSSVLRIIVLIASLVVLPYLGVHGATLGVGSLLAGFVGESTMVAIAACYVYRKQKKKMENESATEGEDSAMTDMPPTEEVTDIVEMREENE
UniProt Q92572: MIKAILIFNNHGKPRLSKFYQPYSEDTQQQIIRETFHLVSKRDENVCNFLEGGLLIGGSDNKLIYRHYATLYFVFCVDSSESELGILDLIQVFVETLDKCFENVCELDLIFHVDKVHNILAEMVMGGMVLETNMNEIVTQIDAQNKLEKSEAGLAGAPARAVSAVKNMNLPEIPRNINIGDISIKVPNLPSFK
UniProt Q2TAA5: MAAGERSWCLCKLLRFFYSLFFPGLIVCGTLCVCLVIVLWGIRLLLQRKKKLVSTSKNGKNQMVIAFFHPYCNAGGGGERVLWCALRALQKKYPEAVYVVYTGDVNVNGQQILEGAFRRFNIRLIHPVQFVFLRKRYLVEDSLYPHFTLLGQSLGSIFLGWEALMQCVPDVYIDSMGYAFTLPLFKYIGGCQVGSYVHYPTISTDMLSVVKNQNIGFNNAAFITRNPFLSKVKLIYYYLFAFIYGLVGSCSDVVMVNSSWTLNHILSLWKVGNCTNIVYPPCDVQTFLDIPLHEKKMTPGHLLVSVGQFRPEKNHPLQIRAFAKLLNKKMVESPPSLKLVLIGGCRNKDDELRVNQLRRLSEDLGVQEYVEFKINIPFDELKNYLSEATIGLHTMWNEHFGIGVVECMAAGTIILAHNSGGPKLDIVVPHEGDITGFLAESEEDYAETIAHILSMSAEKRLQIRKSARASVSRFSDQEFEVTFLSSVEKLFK
UniProt Q8N8A2: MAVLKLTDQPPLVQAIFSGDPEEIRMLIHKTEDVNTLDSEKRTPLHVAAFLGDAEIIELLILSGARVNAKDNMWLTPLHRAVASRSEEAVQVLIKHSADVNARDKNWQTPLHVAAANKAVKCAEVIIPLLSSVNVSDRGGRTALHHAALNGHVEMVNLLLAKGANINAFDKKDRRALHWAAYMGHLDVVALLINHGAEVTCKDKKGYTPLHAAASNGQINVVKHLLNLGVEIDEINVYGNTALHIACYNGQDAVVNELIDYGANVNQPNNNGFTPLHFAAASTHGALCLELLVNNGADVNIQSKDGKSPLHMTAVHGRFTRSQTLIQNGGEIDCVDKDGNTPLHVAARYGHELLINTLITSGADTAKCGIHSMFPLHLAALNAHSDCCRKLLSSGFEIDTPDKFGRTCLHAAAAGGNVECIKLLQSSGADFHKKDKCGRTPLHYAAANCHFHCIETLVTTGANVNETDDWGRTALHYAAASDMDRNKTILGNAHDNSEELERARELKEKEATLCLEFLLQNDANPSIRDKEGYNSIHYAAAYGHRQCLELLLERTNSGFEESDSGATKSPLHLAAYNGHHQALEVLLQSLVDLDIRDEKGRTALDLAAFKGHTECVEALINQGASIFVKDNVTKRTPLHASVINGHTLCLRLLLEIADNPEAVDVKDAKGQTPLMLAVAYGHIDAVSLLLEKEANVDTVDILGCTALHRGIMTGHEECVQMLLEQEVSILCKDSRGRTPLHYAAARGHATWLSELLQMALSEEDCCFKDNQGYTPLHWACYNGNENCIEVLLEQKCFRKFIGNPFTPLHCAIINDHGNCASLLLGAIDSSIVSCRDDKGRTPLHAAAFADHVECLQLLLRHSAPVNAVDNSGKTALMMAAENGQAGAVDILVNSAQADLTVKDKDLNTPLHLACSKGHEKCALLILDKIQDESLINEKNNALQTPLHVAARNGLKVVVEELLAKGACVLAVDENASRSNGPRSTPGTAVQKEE
UniProt Q8N6D5: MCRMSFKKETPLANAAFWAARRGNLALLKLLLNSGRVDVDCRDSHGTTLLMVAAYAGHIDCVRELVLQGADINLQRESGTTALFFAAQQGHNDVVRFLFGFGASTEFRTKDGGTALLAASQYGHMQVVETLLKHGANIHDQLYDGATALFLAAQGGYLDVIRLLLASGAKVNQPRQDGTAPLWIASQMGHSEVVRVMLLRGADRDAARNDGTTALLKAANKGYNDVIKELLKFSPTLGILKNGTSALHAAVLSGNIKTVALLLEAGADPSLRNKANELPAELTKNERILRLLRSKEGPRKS

Legend:
Test in all cases: log2 fold change, soluble protein after heating vs DMSO (PISA); higher = thermal stabilisation; K562 lysate, 10 uM; active = over 0.2 and 3.5 SD of the protein, either way, in both replicates (recomputed)
[1] = compound: C#Cc1cccc(Nc2ncnc3cc(OCCOC)c(OCCOC)cc23)c1 [erlotinib]
How it was run: (§1)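 Following dounce homogenisation of K562 pellets in PBS pH 7.4 with 1 mM MgCl2, crude extract at 1 mg/mL protein was incubated for 30 min with 10 μM compound. Aliquots were then heated for 3 min over 48°C-58°C and pooled, NP-40 was added to 0.5% at 4°C, and soluble protein was recovered as the supernatant at 21,000xg for 90 min. Channel-sum-equalised TMTpro 16plex LC-MS/MS quantified this protein. Each value, from duplicates, is a log-two fold change in thermal stability relative to solvent controls.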

[2] = compound: C/C(=N\NC(=O)C1=CC(=CC=C1)S(=O)(=O)N2CCOCC2)/C3=C(C=CC(=C3)Cl)O
How it was run: as §1

[3] = compound: C1=CC(=CC=C1C2=NC3=C(N2)C=C(C=C3)C(=O)N)OC4=CC=C(C=C4)Cl
How it was run: as §1

[4] = compound: C1=CC2=C(C=CC(=C2)/C=C\3/C(=O)NC(=NCC4=CC=CS4)S3)N=C1
How it was run: as §1

[5] = compound: C1=CC2=NC=CN=C2C=C1/C=C/3\C(=O)NC(=O)S3
How it was run: as §1

[6] = compound: C1=CC=C(C=C1)C2=NC(=C(N2)C3=CC=NC=C3)C4=CC(=C(C=C4)Cl)O
How it was run: as §1

[7] = compound: C1=CC=C2C(=C1)C3=NNC4=CC=CC(=C43)C2=O
How it was run: as §1

[8] = compound: C1CCN(C1)C(=O)NC2=CC=CC(=C2)NC3=NC=C(C(=N3)NCCC4=CN=CN4)Br
How it was run: as §1

[9] = compound: C1CN(CCC1(CC2=CC=C(C=C2)Cl)N)C3=NC=NC4=C3C=CN4
How it was run: as §1

[10] = compound: C1COCCN1CCN2C3=CC=CC=C3N=C2NC(=O)C4=CC(=CC=C4)[N+](=O)[O-] [IRAK-1-4 Inhibitor I]
How it was run: as §1

Measured: log2 fold change

AP1G1 isoform 2 (UniProt O43747)
inactive: [1] -0.016 | [2] -0.018 | [3] -0.007 | [4] 0.004 | [5] 0.001 | [6] 0.02 | [7] -0.008 | [8] -0.034 | [9] -0.002 | [10] 0.03

AKT2 (UniProt P31751)
inactive: [1] -0.011 | [2] 0.082 | [3] -0.013 | [4] -0.005 | [5] -0.022 | [6] -0.025 | [7] 0.009 | [8] -0.014 | [9] -0.017 | [10] -0.045

ANKMY2 (UniProt Q8IV38)
inactive: [1] -0.016 | [2] 0.027 | [3] 0 | [4] -0.011 | [5] -0.007 | [6] 0.005 | [7] 0.003 | [8] 0.016 | [9] 0.001 | [10] 0.004

ALDOA (UniProt P04075)
inactive: [1] -0.014 | [2] 0.038 | [3] 0.024 | [4] -0.016 | [5] -0.008 | [6] -0.003 | [7] 0.02 | [8] 0.006 | [9] -0.018 | [10] 0.015

ANKHD1 isoform 6 (UniProt Q8IWZ3)
inactive: [1] -0.006 | [2] 0.001 | [3] -0.007 | [4] 0.025 | [5] -0.004 | [6] -0.002 | [7] -0.004 | [8] -0.039 | [9] 0.028 | [10] -0.002

AMDHD2 isoform 3 (UniProt Q9Y303)
inactive: [1] -0.013 | [2] -0.045 | [3] 0.06 | [4] -0.038 | [5] 0.028 | [6] -0.01 | [7] -0.003 | [8] 0.022 | [9] 0.044 | [10] 0.018

AP2A2 isoform 2 (UniProt O94973)
inactive: [1] -0.055 | [2] 0.018 | [3] 0.026 | [4] 0.032 | [5] -0.118 | [6] -0.018 | [7] -0.025 | [8] -0.029 | [9] 0.031 | [10] 0.005

ANKZF1 (UniProt Q9H8Y5)
inactive: [1] 0.016 | [2] -0.041 | [3] -0.013 | [4] 0.046 | [5] -0.037 | [6] 0.001 | [7] 0.017 | [8] -0.003 | [9] 0.034 | [10] -0.022

AP1AR (UniProt Q63HQ0)
inactive: [1] -0.198 | [2] 0.045 | [3] 0.161 | [4] 0.015 | [5] 0.042 | [6] 0.004 | [7] -0.007 | [8] 0.01 | [9] 0.049 | [10] -0.046

3 records drawn at random from those above, as already listed:
ANKHD1 isoform 6 (UniProt Q8IWZ3)
inactive: [1] -0.006 | [2] 0.001 | [3] -0.007 | [4] 0.025 | [5] -0.004 | [6] -0.002 | [7] -0.004 | [8] -0.039 | [9] 0.028 | [10] -0.002

AMDHD2 isoform 3 (UniProt Q9Y303)
inactive: [1] -0.013 | [2] -0.045 | [3] 0.06 | [4] -0.038 | [5] 0.028 | [6] -0.01 | [7] -0.003 | [8] 0.022 | [9] 0.044 | [10] 0.018

AP1AR (UniProt Q63HQ0)
inactive: [1] -0.198 | [2] 0.045 | [3] 0.161 | [4] 0.015 | [5] 0.042 | [6] 0.004 | [7] -0.007 | [8] 0.01 | [9] 0.049 | [10] -0.046

Additional records follow:

ANKRD17 (UniProt O75179)
inactive: [1] 0.015 | [2] -0.087 | [3] 0.022 | [4] -0.01 | [5] -0.008 | [6] -0.035 | [7] -0.032 | [8] -0.027 | [9] -0.033 | [10] -0.021

AMFR (UniProt Q9UKV5)
inactive: [1] -0.037 | [2] 0.204 | [3] -0.157 | [4] -0.114 | [6] -0.026 | [7] -0.219 | [8] -0.324 | [9] 0.069 | [10] 0.021

AP1S2 (UniProt H7BZG6)
inactive: [1] -0.051 | [3] -0.085

ANKRD10 (UniProt Q9NXR5)
inactive: [1] 0.023 | [2] 0.045 | [3] -0.041 | [4] 0.009 | [5] 0.055 | [6] 0.012 | [7] -0.066 | [10] -0.059

ANKLE2 (UniProt Q86XL3)
inactive: [1] 0.022 | [2] 0.065 | [3] -0.021 | [4] -0.027 | [5] -0.028 | [6] -0.014 | [7] -0.011 | [8] -0.091 | [9] 0.006 | [10] 0.054

ANKRD11 (UniProt Q6UB99)
inactive: [1] -0.005 | [2] -0.077 | [3] 0.011 | [4] 0.034 | [6] 0.003 | [7] -0.038 | [8] -0.103 | [9] -0.016 | [10] -0.01

ALMS1 (UniProt Q8TCU4)
inactive: [1] 0.023 | [2] -0.055 | [3] -0.011 | [4] -0.18 | [5] -0.028 | [6] 0.051 | [7] 0.068 | [8] -0.056 | [9] 0.009 | [10] -0.036

AP2M1 (UniProt Q96CW1)
inactive: [1] 0.001 | [2] -0.028 | [3] 0.004 | [4] 0.029 | [5] -0.01 | [6] -0.01 | [7] -0.046 | [8] -0.046 | [9] 0.007 | [10] 0.025

ALKBH6 isoform 2 (UniProt Q3KRA9)
inactive: [1] 0.026 | [2] 0.008 | [3] -0.002 | [4] -0.019 | [6] 0.018 | [7] -0.005 | [8] -0.045 | [9] 0.012 | [10] -0.015

ANKH (UniProt Q9HCJ1)
inactive: [1] -0.102 | [2] 0.036 | [3] 0.074 | [4] -0.014 | [6] 0.016 | [7] 0.018 | [8] -0.118 | [9] 0.002 | [10] 0.197

AMMECR1L (UniProt Q6DCA0)
inactive: [1] -0.159 | [2] 0.023 | [3] 0.206 | [4] 0.028 | [6] -0.081 | [7] 0.006 | [8] 0.001 | [9] 0.082 | [10] -0.049

AP3S2 (UniProt P59780)
inactive: [1] -0.025 | [3] 0.009

ANXA2 (UniProt H0YL33)
inactive: [1] -0.153 | [3] 0.088 | [5] -0.108 | [6] -0.027 | [10] -0.031

ANXA13 isoform 2 (UniProt P27216)
inactive: [1] -0.078 | [2] 0.111 | [3] -0.121 | [4] -0.019 | [5] -0.083 | [6] -0.029 | [7] 0.029 | [10] -0.174

AP3S1 (UniProt Q92572)
inactive: [1] 0.034 | [2] -0.056 | [3] -0.003 | [4] 0.011 | [5] -0.028 | [6] 0.006 | [7] 0 | [8] -0.004 | [9] -0.033 | [10] 0.001

ANKRD46 (UniProt Q86W74)
inactive: [1] -0.111 | [2] -0.279 | [3] 0.258 | [4] 0.174 | [6] 0.008 | [7] 0.088 | [10] 0.072

AP3D1 isoform 2 (UniProt O14617)
inactive: [1] 0.029 | [2] -0.082 | [3] -0.15 | [4] -0.162 | [7] -0.026

ALG11 (UniProt Q2TAA5)
inactive: [1] 0.074 | [3] -0.008 | [5] -0.162 | [6] -0.023 | [10] 0.012

ALG10B (UniProt Q5I7T1)
inactive: [1] 0.034 | [3] 0.024 | [5] -0.036 | [6] -0.039 | [10] 0.047

AMBRA1 isoform 5 (UniProt Q9C0C7)
inactive: [1] -0.047 | [2] -0.291 | [3] -0.015 | [4] 0.21 | [6] 0.043 | [7] 0.107 | [8] -0.032 | [9] 0.14 | [10] -0.061

AP1S3 isoform 4 (UniProt Q96PC3)
inactive: [1] -0.098 | [3] -0.054 | [5] 0.085 | [6] 0.198 | [10] -0.025

AP3B1 (UniProt O00203)
inactive: [1] -0.024 | [2] -0.001 | [3] 0.002 | [4] 0.021 | [5] -0.029 | [6] -0.001 | [7] -0.024 | [8] -0.014 | [9] -0.005 | [10] -0.025

ANKRD44 isoform 2 (UniProt Q8N8A2)
inactive: [1] -0.034 | [2] -0.035 | [3] 0.002 | [4] -0.083 | [5] -0.016 | [7] -0.257 | [8] -0.059 | [9] -0.032

ALKBH4 (UniProt Q9NXW9)
inactive: [1] 0.014 | [2] -0.073 | [3] 0.026 | [4] -0.011 | [5] 0.017 | [6] -0.052 | [7] -0.069 | [8] 0 | [9] 0.019 | [10] 0.003

ANKRD29 (UniProt Q8N6D5)
inactive: [1] 0.01 | [2] 0 | [3] -0.064 | [4] -0.006 | [5] 0.117 | [7] -0.173 | [8] -0.078 | [9] 0.205

ALG8 (UniProt Q9BVK2)
inactive: [1] 0.022 | [2] -0.102 | [3] -0.082 | [4] 0.018 | [5] 0.016 | [6] -0.062 | [7] -0.001 | [8] 0.053 | [9] 0.012 | [10] -0.007

ALDOA (UniProt H3BPS8)
inactive: [1] -0.097 | [2] 0.007 | [3] 0.075 | [4] 0.004 | [5] -0.057 | [7] -0.005 | [8] 0.007 | [9] 0.253

ALKBH1 (UniProt Q13686)
inactive: [1] 0.033 | [2] -0.042 | [3] -0.02 | [4] 0.052 | [6] 0.024 | [7] -0.022 | [8] 0.211 | [9] 0.041 | [10] -0.11

ANAPC16 (UniProt Q96DE5)
inactive: [1] 0.046 | [2] 0.046 | [3] -0.023 | [4] -0.171 | [6] -0.089 | [7] -0.028 | [8] 0.295 | [9] -0.112 | [10] -0.017

ANKHD1 isoform 2 (UniProt Q8IWZ3)
inactive: [1] 0.074 | [3] -0.036 | [5] -0.027 | [6] 0.061 | [8] 0.037 | [9] -0.015 | [10] -0.036

ALG6 (UniProt Q9Y672)
inactive: [1] 0.07 | [2] 0.114 | [3] 0.011 | [4] 0.071 | [5] 0.023 | [6] 0 | [7] -0.28 | [8] 0.003 | [9] -0.084 | [10] 0.084

ALKBH5 (UniProt Q6P6C2)
inactive: [1] 0.007 | [2] -0.126 | [3] 0.053 | [4] -0.025 | [5] -0.013 | [6] 0.053 | [7] -0.127 | [8] -0.08 | [9] 0.016 | [10] 0.079

ALPK1 (UniProt Q96QP1)
inactive: [1] -0.083 | [3] 0.04

ALOX12B (UniProt O75342)
inactive: [1] -0.075 | [3] -0.032 | [5] 0.007 | [6] -0.201 | [10] -0.137
